## Primary screen of a compound library

Protein sequences, listed by entry. Tags and fused reporters are not part of them. Residues count along the entry.
UniProt Q4DA54, 1-478: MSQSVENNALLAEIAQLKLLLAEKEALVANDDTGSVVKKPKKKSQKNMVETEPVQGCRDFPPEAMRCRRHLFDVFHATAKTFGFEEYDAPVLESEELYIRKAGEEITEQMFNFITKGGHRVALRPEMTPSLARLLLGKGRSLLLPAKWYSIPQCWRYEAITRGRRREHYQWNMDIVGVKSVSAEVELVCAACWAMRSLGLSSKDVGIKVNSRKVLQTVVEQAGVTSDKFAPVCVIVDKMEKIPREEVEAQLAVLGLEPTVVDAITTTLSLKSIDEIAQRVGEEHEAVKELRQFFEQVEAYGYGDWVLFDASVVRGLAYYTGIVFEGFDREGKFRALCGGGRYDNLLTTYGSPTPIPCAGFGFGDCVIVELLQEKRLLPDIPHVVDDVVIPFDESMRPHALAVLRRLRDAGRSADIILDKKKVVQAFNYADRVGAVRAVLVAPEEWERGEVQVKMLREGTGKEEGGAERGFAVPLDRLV
UniProt P9WNZ1, whole entry: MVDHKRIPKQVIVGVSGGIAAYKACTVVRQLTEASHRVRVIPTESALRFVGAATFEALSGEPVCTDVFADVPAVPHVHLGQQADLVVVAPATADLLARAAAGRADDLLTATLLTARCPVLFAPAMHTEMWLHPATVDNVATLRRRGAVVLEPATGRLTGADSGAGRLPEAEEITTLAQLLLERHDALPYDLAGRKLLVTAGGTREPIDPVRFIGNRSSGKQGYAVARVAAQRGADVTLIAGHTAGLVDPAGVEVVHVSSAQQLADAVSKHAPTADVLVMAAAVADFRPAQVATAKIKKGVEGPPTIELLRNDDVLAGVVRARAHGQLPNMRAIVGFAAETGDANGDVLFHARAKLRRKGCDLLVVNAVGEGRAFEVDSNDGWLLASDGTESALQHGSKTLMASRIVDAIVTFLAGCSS

From ChEMBL document CHEMBL3988442, “University of Dundee, Small-Polar-MMV Screening Library” (2021).

The filed quantity is “Percent Effect” (%). The controls that fix the scale are not given in the record; negative values are as filed. The compounds are a random part of those screened. Two or more numbers in one place are separate tests of the same structure; such repeats can differ widely. A dash means the value is not listed here; it may have been measured.

Toxoplasma: 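Assay of Toxoplasma gondii numbers, read through their beta-galactosidase reporter with a colour substrate. Concentration: 10 µM. The record gives no direction; the compounds picked for IC50 retests had high values, so higher reads as fewer parasites. About 67,000 compounds were tested under these conditions; 0.38% (about 260) showed 50% or more at least once.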
TcHisRS: 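Histidine-tRNA ligase, Trypanosoma cruzi CL Brener (UniProt Q4DA54). Enzyme assay of histidyl-tRNA synthetase; the read-out is not stated. Compounds at 30 µM. The record gives no direction; compounds that gave an IC50 in retests scored well above the rest, so higher reads as stronger inhibition. Of about 69,000 compounds tested this way, about 31 (0.045%) reached 50% or more in at least one test.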
CoaBC: 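Coenzyme A biosynthesis protein CoaBC, Mycobacterium tuberculosis (UniProt P9WNZ1). Enzyme assay of CoaBC with a phosphate dye (Biomol Green) read at 650 nm. Compounds at 30 µM. Higher reads as stronger inhibition, judged from the few compounds that gave an IC50. Most strong results did not repeat in a second test. Of about 67,000 compounds tested this way, about 40 (0.06%) reached 50% or more in at least one test.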
Leishmania in macrophages: 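Cell assay of Leishmania donovani living inside macrophages; the read-out is not stated. Compounds at 30 µM. Direction is inferred from retests: higher values go with stronger inhibition. Of about 69,000 compounds tested this way, about 1,000 (1.5%) reached 50% or more in at least one test.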

| # | structure | Toxoplasma | TcHisRS | CoaBC | Leishmania in macrophages |
|---|---|---|---|---|---|
| 1 | `Cc1c(C(=O)N2CCCN(S(C)(=O)=O)CC2)cnn1C` | -3.056% | 4.02% | 3.883% | 3.125% |
| 2 | `Cc1nccc(C2(C)CCCNC2)n1` (stereo unspecified) | - | 2.26% | 2.906% | - |
| 3 | `CCCc1nnc(N(C)CC2CCN(CC(C)C)CC2)o1` | 4.704% | 1.657% | 5.95% | 2.682% |
| 4 | `CCc1nn(C)c(Cl)c1CN(CCOC)Cc1cnn(C)c1` | -6.592% | 3.571% | -0.6289% | 1.419% |
| 5 | `O=C(O)C(F)(F)F.O=C(O)C(F)(F)F.[H][C@]12CCC[C@@]1(COc1ccccn1)CN(C(=O)c1ccc(C)cn1)C2` | 6.837% | - | - | 20.94% |
| 6 | `COc1ccc(OC)c2c(C)cc(N(CCO)CCO)nc12` | 5.689% | 9.184% | 1.512% | 24.3% |
| 7 | `c1cncc(C2COC3(CCN(Cc4ccsc4)CC3)C2)c1` (stereo unspecified) | - | 3.738% | 0.4938% | - |
| 8 | `CC(C(=O)NCCCN1CCOCC1)n1cncn1` (stereo unspecified) | -2.059% | 2.89% | 0.3911% | -26.77% |
| 9 | `CC(C)(C)Nc1c(C2CCCN(C(=O)C3CC3)C2)nc2ccccn12.Cl` (stereo unspecified) | 10.33% | - | - | -4.234% |
| 10 | `[H][C@@]12CCN(C(=O)c3nnc4n3CCCCC4)C[C@@]([H])(CC1)N2C` | 0.1588% | - | - | 19.61% |
| 11 | `O=C(c1cnc(COc2ccccc2)nc1O)N1CCOCC1` | -13.26% | 4.878% | -3.797% | -15.4% |
| 12 | `O=C(NCc1cc[nH]n1)N1CCCCC(N2CCCC2)C1` (stereo unspecified) | -6.717% | 0.7576% | -2.838% | 10.57% |
| 13 | `CN(C(=O)c1ccon1)[C@@H]1CCC[C@@H](Oc2ccccc2)[C@@H]1O` | -4.169% | 6.716% | -1.217% | -4.352% and 15.12% |
| 14 | `CC(C(=O)NC1CC1)S(=O)(=O)c1cc2c(cc1Cl)OCCO2` (stereo unspecified) | -4.759% | 13.79% | 0.9823% | -14.41% |
| 15 | `Cc1nc(SC2CCN(c3sccc3C#N)C2=O)oc1C` (stereo unspecified) | 0.2499% | 4% | 14.05% | 11.39% |
| 16 | `CNc1nc2c(s1)C(=O)CN(C(=O)[C@@H](N)Cc1cccc(OC)c1)C2` | 16.39% | 4.52% | 4.94% | 5.757% and -1.951% |
| 17 | `CNC(=O)NC(=O)CN(CC(C)O)c1ccccc1` (stereo unspecified) | 0.4632% | 0% | 8.423% | -6.442% |
| 18 | `CCOC(=O)NCCC(=O)NCc1ccc(Oc2cccc(F)c2)nc1` | -3.495% | 11.31% | -1.583% | -7.98% |
| 19 | `CCN(Cc1ccc(F)c(F)c1)Cc1nc2c(cnn2C)c(=O)[nH]1` | 0.2973% | 7.289% | 4.178% | -0.7657% |
| 20 | `Cc1cc(C)nc(N2CC[C@H](Oc3ccccc3F)[C@@H](O)CC2)n1` | 12.58% | 2.26% | -49.15% | 10.88% |
| 21 | `O=C(O)C(F)(F)F.O=C(O)C(F)(F)F.[H][C@@]12CCCO[C@]1([H])[C@H](N(C)Cc1ccco1)CN(Cc1ccsc1)C2` | 1.605% | - | - | -8.335% |
| 22 | `COCC1CC2(CCN(C(=O)c3occc3C)CC2)CN1C(C)C` (stereo unspecified) | - | -1% | -2.767% | - |
| 23 | `COCCCN(C)S(=O)(=O)c1ccc(Cl)cc1C#N` | -20.27% | 9.036% | -0.122% | 7.925% |
| 24 | `CCOc1ccc(CN2C(=O)CC(C)(C)C2=O)nc1` | 15.64% | 1.571% | -3.212% | -0.9768% |
| 25 | `Cn1c2ncccc2c(=O)n1CC(=O)Nc1ccc(F)c(F)c1` | 6.997% | 9% | 6.116% | -0.2875% |
| 26 | `CN(C)C(=O)CN1CCC(c2nnc(Cn3cccn3)n2C2CC2)CC1` | -9.703% | 0.4464% | 2.551% | -2.361% |
| 27 | `O=C(O)C(F)(F)F.O=C(O)C(F)(F)F.[H][C@@]12C[C@@H](C(=O)NC)N(C)[C@]1([H])CN(Cc1ccco1)C2` | 7.603% | - | - | 41.65% |
| 28 | `O=C(NCc1cn2c(n1)CN(Cc1ccccn1)CC2)C1CCC1.O=C(O)C(F)(F)F.O=C(O)C(F)(F)F` | 6.761% | - | - | 22.91% |
| 29 | `O=C(CCC1CC1)N1CCC(n2cc(C3(O)CCCC3)nn2)CC1` | 1.219% | -14.29% | - | -20.38% |
| 30 | `Cc1cccc(C)c1OC1CN(Cc2cnc(N3CCCC3)nc2)C1` | -6.273% | 9.74% | 13.42% | 43.29% |
| 31 | `Cc1ccccc1CCC1CCCN(Cc2c(C)[nH]c(=O)[nH]c2=O)C1` (stereo unspecified) | 2.029% | -1.163% | 4.721% | 12% |
| 32 | `CS(=O)(=O)NCCC(=O)N1CCCC1c1noc(C2CC2)n1` (stereo unspecified) | - | 3.448% | 3.813% | 20.34% |
| 33 | `CSc1ccc(S(=O)(=O)N2CCCCC2CCNC(C)=O)cc1` (stereo unspecified) | 8.054% | 1.653% | 3.226% | 19.32% |
| 34 | `CNCc1ccc([C@@H]2CN(C(C)=O)C[C@H]2C(=O)N(C)C)cc1.Cl` | 18.55% | - | - | 28.74% |

Some entries from above, unchanged:

| structure | Toxoplasma | TcHisRS | CoaBC | Leishmania in macrophages |
|---|---|---|---|---|
| `Cc1nc(SC2CCN(c3sccc3C#N)C2=O)oc1C` (stereo unspecified) | 0.2499% | 4% | 14.05% | 11.39% |
| `O=C(O)C(F)(F)F.O=C(O)C(F)(F)F.[H][C@@]12CCCO[C@]1([H])[C@H](N(C)Cc1ccco1)CN(Cc1ccsc1)C2` | 1.605% | - | - | -8.335% |
| `Cc1c(C(=O)N2CCCN(S(C)(=O)=O)CC2)cnn1C` | -3.056% | 4.02% | 3.883% | 3.125% |
| `COCCCN(C)S(=O)(=O)c1ccc(Cl)cc1C#N` | -20.27% | 9.036% | -0.122% | 7.925% |